In PMC12637930:

Molecular target: T1, CiLV-C p29 fused to NYFP or CYFP (BiFC construct) (CiLV-C) (UniProt Q1KZ58)
T1 sequence: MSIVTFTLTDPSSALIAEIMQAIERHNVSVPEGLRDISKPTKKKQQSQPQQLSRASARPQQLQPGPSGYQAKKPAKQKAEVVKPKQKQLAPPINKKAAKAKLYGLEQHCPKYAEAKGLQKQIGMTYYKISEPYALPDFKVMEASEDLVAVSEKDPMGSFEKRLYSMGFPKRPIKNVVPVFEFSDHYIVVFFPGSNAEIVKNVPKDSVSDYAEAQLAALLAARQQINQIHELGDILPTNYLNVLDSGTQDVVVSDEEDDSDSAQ
Test: split reporter; BiFC (split YFP) in N. benthamiana leaf cells, co-expression, fluorescence captured at 3 dpi

| Substance | binding |
| --- | --- |
| PABP fused at its C-terminus to a split YFP fragment (BiFC construct) | binds |
| eIF4E fused at its C-terminus to a split YFP fragment (BiFC construct) | binds |

No constants are given. Whether binding was seen depends on the method and setting. Binding seen in cells or lysates may run through a third protein. Binding can be weak; no strength is given. Tags and fused reporters may be left off the sequences shown.
